Experimental data taken from article PMC6139164.
Results are given in words; binding and its absence hold for the method and conditions named. In cells and extracts the contact can be indirect. Tags and fused reporters may be left off the sequences shown.

The chains behind the UniProt entries cited, without tags or fusion partners.
UniProt P46937: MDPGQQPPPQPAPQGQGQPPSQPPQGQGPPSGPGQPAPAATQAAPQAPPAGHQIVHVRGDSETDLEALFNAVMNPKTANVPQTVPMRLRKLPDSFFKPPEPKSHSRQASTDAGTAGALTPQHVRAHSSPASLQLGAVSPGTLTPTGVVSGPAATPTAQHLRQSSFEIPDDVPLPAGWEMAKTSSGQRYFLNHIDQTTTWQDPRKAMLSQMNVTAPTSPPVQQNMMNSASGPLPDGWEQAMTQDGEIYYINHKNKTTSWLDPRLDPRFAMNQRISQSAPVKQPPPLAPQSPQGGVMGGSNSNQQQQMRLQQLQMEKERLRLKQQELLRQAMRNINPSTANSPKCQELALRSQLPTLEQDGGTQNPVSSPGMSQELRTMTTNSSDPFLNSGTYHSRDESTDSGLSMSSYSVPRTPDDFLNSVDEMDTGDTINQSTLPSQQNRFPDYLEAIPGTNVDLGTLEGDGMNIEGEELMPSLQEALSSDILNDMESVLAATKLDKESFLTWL

Target: T1, HA-tagged LIM domain only 3 (LMO3) (UniProt Q8TAP4)
T1 sequence: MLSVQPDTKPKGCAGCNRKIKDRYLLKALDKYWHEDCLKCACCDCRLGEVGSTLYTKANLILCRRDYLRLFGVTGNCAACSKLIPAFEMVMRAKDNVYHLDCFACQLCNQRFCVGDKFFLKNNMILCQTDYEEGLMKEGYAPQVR
Test: co-IP; Huh-7 cell lysates transfected with HA-tagged LMO3 or vector control; immunoprecipitation with anti-HA monoclonal antibody or control IgG; immunoblotting with anti-LATS1 or YAP antibodies

binding: no binding
Substance: Yes Associated Protein (YAP) (from UniProt P46937 1-504)
